Reference: PubChem BioAssay AID504467 (National Center for Advancing Translational Sciences (NCATS), 2011)
In all, about 330,000 compounds went through this assay and about 7,700 (2.3%) were called active. The inconclusive results got no clear call from the source; some entries with a clear call stand among them for comparison. The call rests on the fitted dose curve; in most records, active means well fitted inhibition curve with a large enough effect; inconclusive means small, poorly fitted or top-dose-only effect, or effect the other way; inactive means flat fitted curve, though single readings scatter. Where the call is inconclusive, the potency comes from a doubtful curve fit.

assay: qHTS screen for small molecules that inhibit ELG1-dependent DNA repair in human embryonic kidney (HEK293T) cells expressing luciferase-tagged ELG1; conditions: HEK293T ELG1-luciferase reporter, luminescence, 16 h, DNA damage induced by 5-fluorouridine; series mostly up to 46.1 µM; further: nearly all actives have a fitted effect of over 55% in size
In short: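 Reporter activity after DNA damage by 5-fluorouridine is monitored. Compound-treated cells incubate 16 hr at 37 °C, then ONE-Glo is added for 30 min before luminescence reading.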
Potency means the concentration at half of the fitted maximal effect.

For N#Cc1ccc(-c2csc(NC(=O)c3cc(-c4cccs4)nc4ccccc34)n2)cc1, which Potency is on record?
Its Potency is inconclusive: 6.51 µM [inhibitor, full curve].

For O=S(=O)(c1ccc(-c2csc(Nc3ccc(F)cc3)n2)cc1)N1CCCC1, which Potency is on record?
The Potency was “inactive”.

For COc1ccccc1CNC(=O)c1cc2c(C)nn(Cc3ccc(F)cc3)c2s1, which Potency is on record?
The Potency was inconclusive: 23.1 µM [inhibitor, single point].

Which Potency does the source give for CCOc1ccc(S(=O)(=O)NC(C)(C)C)cc1-c1nc2c(C(C)(C)C)nn(C)c2c(=O)[nH]1 here?
Its Potency is active: 11.6 µM.

For Cc1ccc(S(=O)(=O)Cn2nnnc2C(C(C)C)N2CCN(c3nc4ccccc4s3)CC2)cc1 (stereo not drawn), which Potency is on record?
Its Potency is active: 18.4 µM.

For CCCCCN(C(=O)CCC(=O)OCC(=O)c1ccc(C(C)(C)C)cc1)c1c(N)n(CCCC)c(=O)[nH]c1=O, which Potency is on record?
Its Potency is inconclusive: 18.3 µM [activator, single point].

Which Potency does the source give for O=C(OCC(=O)N1CCCCCC1)c1ccc(F)cc1F here?
The Potency was inconclusive: 20.6 µM [activator, single point].

For Cc1ccccc1NC(=O)N1CCc2ccccc2C1, which Potency is on record?
Its Potency is inconclusive: 23.1 µM [activator, single point].

For O=C1CC(Sc2nnc(-c3ccccc3)o2)C(=O)N1c1ccccc1 (stereo not drawn), which Potency is on record?
Its Potency is inconclusive: 14.1 µM [activator, single point].

For COc1ccc(NC(=O)CCc2nnc3ccc(N4CCC(C)CC4)nn23)cc1, which Potency is on record?
The Potency was “inactive”.

Which Potency does the source give for CC(C)CC(C(=O)NC1CCCC1)N(Cc1ccc2c(c1)OCO2)C(=O)c1snc(C(N)=O)c1N (stereo not drawn) here?
The Potency was inconclusive: 16.4 µM [inhibitor, partial curve].

For Cc1cc(C(=O)Cn2cc(C(F)(F)F)ccc2=O)c(C)n1CC1CCCO1 (stereo not drawn), which Potency is on record?
The Potency was inconclusive: 18.3 µM [activator, single point].

With O=c1c(Cl)c(Nc2cccc(Cl)c2)cnn1-c1nc2ccccc2s1 as the compound, how does the Potency read?
The Potency was inconclusive: 2.59 µM [activator, partial curve].

With N/C(=N\OC(=O)c1cccs1)c1ccccc1 as the compound, how does the Potency read?
Its Potency is inconclusive: 7.31 µM [activator, partial curve].

For Cc1ccc(S(=O)(=O)NCc2ccc(C(=O)N3CCN(c4ccc([N+](=O)[O-])cc4)CC3)cc2)cc1, which Potency is on record?
The Potency was active: 2.31 µM.

For CCOc1ccc(CNCCCSc2ncccn2)cc1, which Potency is on record?
Its Potency is inconclusive: 6.51 µM [activator, single point].

With COc1cccc(C2=CC(c3ccc(N(C)C)cc3)n3nnnc3N2)c1 (stereo not drawn) as the compound, how does the Potency read?
The Potency was “inactive”.

With Nc1ccc(N=Nc2ccccc2)c2cccnc12 as the compound, how does the Potency read?
The Potency was inconclusive: 18.3 µM [activator, single point].

For CN(C(=O)COC(=O)c1cc(=O)[nH]c2ccccc12)c1c(N)n(Cc2ccccc2)c(=O)[nH]c1=O, which Potency is on record?
The Potency was inconclusive: 8.2 µM [activator, single point].

For O=C(CCC(=O)Nc1ccccc1)NNC(=O)C(c1ccccc1)c1ccccc1, which Potency is on record?
Its Potency is inconclusive: 29.1 µM [activator, single point].

For O=C(Nc1ccc(N=Nc2ccccc2)c(NC(=O)C2CCCO2)c1)C1CCCO1 (stereo not drawn), which Potency is on record?
The Potency was active: 9.2 µM.

With COc1ccc(-c2cc3c(=O)n(CC(=O)NCCCN4CCC(N5CCCCC5)CC4)ncn3n2)cc1 as the compound, how does the Potency read?
The Potency was inconclusive: 13 µM [activator, partial curve].

For O=C(N=Nc1c(O)[nH]c2ccccc12)c1ccco1, which Potency is on record?
Its Potency is inconclusive: 8.2 µM [activator, partial curve].

Which Potency does the source give for COc1ccc(N=Cc2c(O)n(-c3cccc(C)n3)c(=O)c3ccccc23)cc1 here?
Its Potency is inconclusive: 18.4 µM [inhibitor, single point].

Which Potency does the source give for CCOC(=O)C1CCN(C(=O)C2CCCN(S(=O)(=O)c3ccc(OC)c(Cl)c3)C2)CC1 (stereo not drawn) here?
Its Potency is inconclusive: 7.3 µM [inhibitor, partial curve, poor fit].

Which Potency does the source give for COc1ccc(Cl)c2c1[nH]c1nc(SCc3ccccn3)nnc12 here?
The Potency was inconclusive: 3.26 µM [activator, partial curve].

Which Potency does the source give for Cc1c(C(=O)NCCCN2CCOCC2)sc2nc(-c3ccc(F)cc3)cn12 here?
Its Potency is “inactive”.

Which Potency does the source give for Cc1ccc2nc(SCC(=O)N3CCCCC3)nc(=O)n2c1 here?
The Potency was inconclusive: 7.3 µM [inhibitor, single point].

For CCOC(=O)c1ccc(N2C(=O)c3n[nH]c(C)c3C2c2ccccn2)cc1 (stereo not drawn), which Potency is on record?
Its Potency is “inactive”.

For CN(c1ccc(C(=O)Nc2ccc(CC#N)cc2)cc1)S(C)(=O)=O, which Potency is on record?
Its Potency is “inactive”.

Which Potency does the source give for O=C(Nc1ccccc1F)c1ccc(-c2cccc([N+](=O)[O-])c2)o1 here?
The Potency was inconclusive: 20.6 µM [activator, partial curve].

Which Potency does the source give for Cc1nc(SCC(=O)c2cccs2)c2oc3ccccc3c2n1 here?
Its Potency is inconclusive: 3.26 µM [activator, single point].

For CC1=C(C(=O)OCc2ccc3c(c2)OCO3)C(c2ccc(O)c([N+](=O)[O-])c2)NC(=O)N1 (stereo not drawn), which Potency is on record?
The Potency was active: 9.2 µM.

For O=C(CSc1nc2ccccc2c(=O)[nH]1)Nc1ccc(N2CCOCC2)cc1, which Potency is on record?
The Potency was “inactive”.

With CCOC(=O)N1CCN(C(=O)C2CCCN(S(=O)(=O)c3ccccc3)C2)CC1 (stereo not drawn) as the compound, how does the Potency read?
The Potency was “inactive”.

For O=C(COc1ccc(Cl)cc1Cl)Nc1cccnc1, which Potency is on record?
Its Potency is inconclusive: 4.61 µM [activator, full curve].

Which Potency does the source give for Cc1ccnc(NC(=O)C(C)n2cc([N+](=O)[O-])cn2)c1 (stereo not drawn) here?
Its Potency is inconclusive: 29.1 µM [activator, single point].

Which Potency does the source give for COC(=O)c1ccc(OC)c(CSc2nnc(-c3ccc(C(C)(C)C)cc3)o2)c1 here?
Its Potency is inconclusive: 18.4 µM [inhibitor, single point].

For Cc1ccc(C(=O)NNC(=O)Cc2ccccc2)cc1, which Potency is on record?
Its Potency is inconclusive: 20.6 µM [activator, single point].

Which Potency does the source give for Cc1ccc(C(=O)OCC(=O)NCCN2C(=O)CSC2=O)cc1 here?
The Potency was inconclusive: 29.1 µM [activator, single point].

Which Potency does the source give for COc1ccc(S(=O)(=O)N2CCCN(CCC(=O)Nc3cccc(C(F)(F)F)c3)CC2)cc1 here?
The Potency was inconclusive: 29.1 µM [inhibitor, single point].

For Cc1cccc(OCC(=O)Nc2cc(C)ccc2O)c1, which Potency is on record?
The Potency was “inactive”.

For Cc1ccc(N(Cc2ccccc2)C(=O)c2ccc(S(=O)(=O)N3CCOCC3)cc2)cc1, which Potency is on record?
Its Potency is “inactive”.
